## Melanoma cell counts after drug treatment

Source: doi:10.1371/journal.pone.0140310, primary screening data, rounded.

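The test systems are human melanoma cell lines, treated with a single drug for 72 h and then stained and imaged. Each value is the count of nuclei relative to DMSO-treated wells, in %, so that 100 equals the control. Every drug was used at one fixed concentration, the higher of two screened. These are primary screening values without error estimates.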
This is part of the screen, not chosen by result.

Drug,RVH-421
CCCS(=O)(=O)Nc1ccc(F)c(C(=O)c2c[nH]c3ncc(Cl)cc23)c1F at 0.4 µM,82.9
Cc1cc([N+](=O)[O-])ccc1NS(=O)(=O)c1cc(Cl)ccc1Cl at 5 µM,60.0
N#CC[C@H](C1CCCC1)n1cc(-c2ncnc3[nH]ccc23)cn1 at 5 µM,75.9
COC(=O)c1sccc1S(=O)(=O)Nc1ccc(Nc2ccccc2)cc1OC at 5 µM,100
CC1(C)NC(=O)N(c2ccc([N+](=O)[O-])c(C(F)(F)F)c2)C1=O at 5 µM,120
C=CCn1c(=O)c2cnc(Nc3ccc(N4CCN(C)CC4)cc3)nc2n1-c1cccc(C(C)(C)O)n1 at 0.1 µM,85.3
Oc1nc(-c2ccc(C(F)(F)F)cc2)nc2c1CSCC2 at 10 µM,75.8
O=c1cc(-c2cccc3c2Sc2ccccc2S3)oc(N2CCOCC2)c1 at 5 µM,99.5
C[As](C)SC[C@H](NC(=O)CC[C@H](N)C(=O)O)C(=O)NCC(=O)O at 2 µM,88.6
O=C(Nc1ccccc1)c1cc([N+](=O)[O-])ccc1Cl at 10 µM,112
NC1(c2ccc(-c3nc4ccn5c(=O)[nH]nc5c4cc3-c3ccccc3)cc2)CCC1 at 2 µM,66.0
O=C(Nc1cccc(Cl)c1)Nc1ncc(CCNc2ncnc3ccsc23)s1 at 0.004 µM,90.0
C#Cc1cccc(Nc2ncnc3cc(OCCOC)c(OCCOC)cc23)c1 at 4 µM,101
CO[C@H]1C[C@@H]2CC[C@@H](C)[C@@](O)(O2)C(=O)C(=O)N2CCCC[C@H]2C(=O)O[C@H]([C@H](C)C[C@@H]2CC[C@@H](OCCO)[C@H](OC)C2)CC(=O)[C@H](C)/C=C(\C)[C@@H](O)[C@@H](OC)C(=O)[C@H](C)C[C@H](C)/C=C/C=C/C=C/1C at 0.1 µM,69.0
CNC(=O)c1cc(Oc2ccc(NC(=O)Nc3ccc(Cl)c(C(F)(F)F)c3)cc2)ccn1 at 2 µM,81.4
COc1ccc2c(c1)CCC1C2CCC2(C)C(NCCCCCCN3C(=O)C=CC3=O)CCC12 (stereo unspecified) at 2 µM,80.8
Oc1cc(-c2nc(-c3ccccc3)[nH]c2-c2ccncc2)ccc1Cl at 1 µM,76.0
Cc1cc(N2CCOCC2)cc2[nH]c(-c3c(NC[C@@H](O)c4cccc(Cl)c4)cc[nH]c3=O)nc12 at 1 µM,82.3
CCN(CC)CCCCNc1ncc2cc(-c3cc(OC)cc(OC)c3)c(NC(=O)NC(C)(C)C)nc2n1 at 0.5 µM,75.5
OCCn1cc(-c2cnc3nnn(Cc4ccc5ncccc5c4)c3n2)cn1 at 5 µM,91.6
C[C@]1(O)C[C@@H](c2nc(-c3ccc4ccc(-c5ccccc5)nc4c3)c3c(N)nccn32)C1 at 2 µM,98.9
Clc1ccc(Nc2nnc(Cc3ccncc3)c3ccccc23)cc1 at 10 µM,51.1
C[C@@H](Oc1cc(-c2cnn(C3CCNCC3)c2)cnc1N)c1c(Cl)ccc(F)c1Cl at 1 µM,65.7
COc1cc(N2CCC(N3CCN(C)CC3)CC2)ccc1Nc1ncc(Cl)c(Nc2ccccc2S(=O)(=O)C(C)C)n1 at 0.4 µM,101

The first 3 entries again:

Drug,RVH-421
CCCS(=O)(=O)Nc1ccc(F)c(C(=O)c2c[nH]c3ncc(Cl)cc23)c1F at 0.4 µM,82.9
Cc1cc([N+](=O)[O-])ccc1NS(=O)(=O)c1cc(Cl)ccc1Cl at 5 µM,60.0
N#CC[C@H](C1CCCC1)n1cc(-c2ncnc3[nH]ccc23)cn1 at 5 µM,75.9